Test results from US20050221291A1.
These are yes or no findings as the source states them, for the method shown. Some binding calls cover weakened binding; strength is not graded here. Where a sequence is shown, tags or fusion partners need not be part of it.

Protein sequences, listed by entry. Tags and fused reporters are not part of them. Lines headed by an entry give the natural chain unless they say otherwise; changes in a name come on top.
UniProt Q9NNX6: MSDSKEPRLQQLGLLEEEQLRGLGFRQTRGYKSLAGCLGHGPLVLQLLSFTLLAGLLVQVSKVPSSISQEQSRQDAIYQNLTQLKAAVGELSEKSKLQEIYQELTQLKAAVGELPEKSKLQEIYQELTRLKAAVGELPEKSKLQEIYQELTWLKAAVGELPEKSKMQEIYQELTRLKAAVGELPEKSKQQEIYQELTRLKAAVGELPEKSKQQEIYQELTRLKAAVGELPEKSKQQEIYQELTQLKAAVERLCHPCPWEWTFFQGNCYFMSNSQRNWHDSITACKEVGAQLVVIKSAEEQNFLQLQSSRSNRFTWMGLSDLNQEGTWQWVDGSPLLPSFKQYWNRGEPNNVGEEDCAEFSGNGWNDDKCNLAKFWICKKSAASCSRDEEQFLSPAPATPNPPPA

Target: DC-SIGN1 expressed on transfected THP-1 cells (prototypic membrane-associated DC-SIGN1, mDC-SIGN1A type I) (human) (UniProt Q9NNX6)
Experiment: fluorescent bead adhesion assay, flow cytometry

B1: ICAM-3/Fc (Fc fusion, UniProt P32942 30-485, looked up, not shown: a dimerising Fc or GST)
chain: QEFLLRVEPQNPVLSAGGSLFVNCSTDCPSSEKIALETSLSKELVASGMGWAAFNLSNVTGNSRILCSVYCNGSQITGSSNITVYRLPERVELAPLPPWQPVGQNFTLRCQVEDGSPRTSLTVVLLRWEEELSRQPAVEEPAEVTATVLASRDDHGAPFSCRTELDMQPQGLGLFVNTSAPRQLRTFVLPVTPPRLVAPRFLEVETSWPVDCTLDGLFPASEAQVYLALGDQMLNATVMNHGDTLTATATATARADQEGAREIVCNVTLGGERREARENLTVFSFLGPIVNLSEPTAHEGSTVTVSCMAGARVQVTLDGVPAAAPGQPAQLQLNATESDDGRSFFCSATLEVDGEFLHRNSSVQLRVLYGPKIDRATCPQHLKWKDKTRHVLQCQARGNPYPELRCLKEGSSREVPVGIPFFVNVTHNGTYQCQASSSRGKYTLVVVMDIEAGSSH
B1 was tested, and the binding was “binds”.
